# Literature values, collected in US20110178180A1, “DEUTERIUM-ENRICHED COLCHICINE, THIOCOLCHICINE, AND DERIVATIVES THEREOF; METHODS OF PREPARATION; AND USE THEREOF” (priority 2010, published 2011).
# Tested on: rat model
# Details: metabolites of thiocolchicoside
smiles,measurement,value
COc1c(O)cc2c(c1OC)-c1ccc(SC)c(=O)cc1[C@@H](NC(C)=O)CC2 [aglycone derivative],muscle relaxant activity,no muscle relaxant activity
